Our source for the binding values is publication PMC4560694.

The target of test [1] is T1, YN-Pi04089 (Phytophthora infestans) (UniProt D0N0I9).
T1 sequence: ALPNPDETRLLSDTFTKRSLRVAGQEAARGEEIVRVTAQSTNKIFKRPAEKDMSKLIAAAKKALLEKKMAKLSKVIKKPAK
The test can be described thus: split reporter.

Test [2] has as its target T2, GFP-Pi04089 (Phytophthora infestans) (UniProt D0N0I9).
T2 sequence: T1 sequence
The test can be described thus: co-IP.

These are yes or no findings as the source states them, for the method shown. In cells and extracts the contact can be indirect. A result given as binding can be weak or reduced; the word gives no strength. For some assays here: Tags and fused reporters may be left off the sequences shown.

Regarding YC-StKRBP1 (Solanum tuberosum), the binding entry in test [1] is listed as “binds”. cMyc-StKRBP1 (Solanum tuberosum): the binding entry in test [2] is on record as “binds”.
